# PubChem BioAssay AID1671190 (National Center for Advancing Translational Sciences (NCATS), 2021)
# Protein sequences, listed by entry. Tags and fused reporters are not part of them. Lines headed by an entry give the natural chain unless they say otherwise; changes in a name come on top.
# UniProt P18054: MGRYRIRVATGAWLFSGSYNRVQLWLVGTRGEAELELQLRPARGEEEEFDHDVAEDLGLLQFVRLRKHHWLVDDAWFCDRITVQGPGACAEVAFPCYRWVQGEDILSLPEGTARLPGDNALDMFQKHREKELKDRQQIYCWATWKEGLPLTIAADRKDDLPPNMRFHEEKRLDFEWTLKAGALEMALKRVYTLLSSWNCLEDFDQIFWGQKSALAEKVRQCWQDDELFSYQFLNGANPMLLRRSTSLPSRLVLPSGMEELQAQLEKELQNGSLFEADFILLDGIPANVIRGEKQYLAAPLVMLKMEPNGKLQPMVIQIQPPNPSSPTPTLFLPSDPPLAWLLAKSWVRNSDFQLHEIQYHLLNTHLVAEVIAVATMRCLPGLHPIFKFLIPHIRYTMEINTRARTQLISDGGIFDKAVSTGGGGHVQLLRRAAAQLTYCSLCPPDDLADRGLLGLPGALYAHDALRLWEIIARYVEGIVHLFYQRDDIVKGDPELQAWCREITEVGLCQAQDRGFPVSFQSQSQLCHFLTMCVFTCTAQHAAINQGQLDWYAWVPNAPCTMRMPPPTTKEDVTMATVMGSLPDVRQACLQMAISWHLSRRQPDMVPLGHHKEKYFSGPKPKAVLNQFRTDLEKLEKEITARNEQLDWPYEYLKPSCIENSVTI
# Several values for one entry are separate records, joined by “and”; a condition that tells them apart may be missing. Identical values can stand only once. Among all 580,000 compounds or so, about 6,100 (1.1%) were called active. Inconclusive results, whose numbers are uncertain, are shown with a selection of clear calls. The call rests on the fitted dose curve; in most records, active means well fitted inhibition curve with a large enough effect; inconclusive means small, poorly fitted or top-dose-only effect, or another doubt; inactive means no such curve, though single readings can be large or run the other way. Potencies beside an inconclusive call are fits to weak or partial responses and may not hold up.
# Biological target: Polyunsaturated fatty acid lipoxygenase ALOX12 (Homo sapiens) (UniProt P18054)
# Experiment: Primary qHTS assay for inhibitors of human arachidonate 12S-lipoxygenase (ALOX12): Round 2
# Conditions: purified 12hLO, xylenol orange hydroperoxide absorbance; activity change, negative = inhibition: at 108 µM (top of the series) unless noted
# Method in brief: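 Purified human 12hLO at 150 nM in 25 mM Hepes, 0.01% Triton X-100, pH 7.0, preincubated 15 min at room temperature with compound. Reaction started with 40 uM arachidonic acid, 30 min at room temperature. Hydroperoxide measured by Fe-xylenol orange, 573/405 nm absorbance ratio.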
# On the % scale 0 is the no-effect control and ±100 the full control effect; potency means the concentration at half of the fitted maximal effect.
Compound,Potency,"activity change, negative = inhibition"
CCCCC1=CC2=C(c3ccco3)C(=O)C(C)(OC(=O)c3ccc(OC)cc3)C(=O)C2=CN1CCOC (centres undefined),inactive,
CN(c1ccccc1)S(=O)(=O)c1ccc(NC(=O)COc2ccccc2)cc1,inactive,
CCC(Oc1ccc(F)cc1)C(=O)NCc1csc(-c2ccccc2)n1 (centres undefined),inactive,
O=C(O)C1NCCN(C(=O)c2ccc3c(ccc4ccccc43)c2)C1C(=O)O (centres undefined),"inconclusive: 0.891 µM [inhibitor, full curve, poor fit]",
Cc1ccc(N2C(=O)c3cccnc3C2Nc2ccc(F)cc2C)cc1 (centres undefined),"inconclusive: 44.7 µM [inhibitor, partial curve, poor fit]",
COc1cccc(Sc2ccccc2CN(C)C)c1,"inconclusive: 25.1 µM [inhibitor, single point]",
COC(=O)/C=C1\S/C(=N/NC(=O)c2ccc(OC)cc2)NC1=O,inactive,
CC(C)C[C@H]1CN(CCCC[C@@H]2CNC(=O)C(=O)N2CC2CCCCC2)C(=O)C(=O)N1CCc1ccc(O)cc1,"inconclusive: 100 µM [inhibitor, partial curve, poor fit]",
O=C(NCCN1CCCCC1)C(=O)Nc1ccc2cc[nH]c2c1,"inconclusive: 39.8 µM [inhibitor, partial curve]",
Cc1ccc(NS(=O)(=O)c2ccc3c(c2)NC(=O)CCS3)c(Br)c1,"inconclusive: 0.501 µM [inhibitor, full curve, poor fit]",
CCC(C(=O)Nc1ccc(S(=O)(=O)N(C)C2CCN(C)CC2)cc1)c1ccccc1 (centres undefined),"inconclusive: 44.7 µM [inhibitor, partial curve, poor fit]",
CN(C)CCCNC(=O)c1ccc(Cl)c(S(=O)(=O)N2CCCCCC2)c1,"inconclusive: 39.8 µM [inhibitor, partial curve, poor fit]",
COc1cc2nc(N(CCCN(C)C)C(=O)c3ccc(S(=O)(=O)N4CCc5ccccc54)cc3)sc2cc1OC,"inconclusive: 31.6 µM [inhibitor, partial curve, poor fit]",
COc1ccccc1NS(=O)(=O)c1cc(C(=O)NCC(c2ccc(F)cc2)N2CCOCC2)ccc1C (centres undefined),inactive,
Cc1cccc(NC(=S)N/N=C2/CCCCc3ccccc32)c1,active: 31.6 µM,
COc1cc(/C=N/NC(=O)CN2CCCCC2)ccc1OCc1ccc(Br)cc1,inactive,
CCCNC(=O)C(C)Sc1nc(CCC)cc(=O)[nH]1 (centres undefined),,inconclusive: -35.9% [inhibitor]
Cc1ccc2c(=O)cc(C(=O)Nc3nnc(C)s3)oc2c1,"inconclusive: 44.7 µM [inhibitor, partial curve, poor fit] and inconclusive: 22.4 µM [inhibitor, partial curve, poor fit]",
CC1O[C@H](OC2C(COC3OC(CO)C(O)[C@H](O)C3O)OC(OC3CC[C@]4(C)C(CC[C@@]5(C)[C@@H]4C=C[C@]46OC[C@@]7(CCC(C)(C)C[C@H]74)C(O)C[C@@]56C)C3(C)C)C(O)C2O)C(O)C(O)C1O (some centres undefined),"inconclusive: 35.5 µM [inhibitor, single point]",
CCOC(=O)c1c(-c2ccccc2)c[nH]c1C,"inconclusive: 100 µM [inhibitor, partial curve, poor fit]",

Compound,Potency,"activity change, negative = inhibition"
CCOC(=O)C1=C(CN2CCC(C(=O)OCC)CC2)NC(=O)NC1c1ccc(Cl)cc1 (centres undefined),"inconclusive: 89.1 µM [inhibitor, partial curve, poor fit]",
CC(C)C(NC(=O)c1cccc(NC(N)=O)c1)c1ccc(Cl)cc1 (centres undefined),"inconclusive: 44.7 µM [inhibitor, partial curve, poor fit]",
COC(=O)[C@@H](C)NC(=O)NCCCCCO,"inconclusive: 112 µM [inhibitor, single point]",
COc1ccccc1CNc1ccnc(-c2ccccc2Cl)n1,"inconclusive: 44.7 µM [inhibitor, partial curve, poor fit]",
COc1ccc(-c2cc(C(=O)NCc3ccc(C(F)(F)F)cc3)[nH]n2)c(C)c1,"inconclusive: 35.5 µM [inhibitor, single point]",
CC(=O)N1CCN(c2ccc(OCc3nn(C)c(C)c3-c3cccc4c(CCCOc5cccc6ccccc56)c(C(=O)O)n(Cc5cccnc5)c34)cc2)CC1,"inconclusive: 21.7 µM [inhibitor, partial curve, poor fit]",
CSc1nc2c(cc1C#N)CCC2,"inconclusive: 141 µM [inhibitor, single point]",
Cc1cccc(-c2cnc(C(O)c3ccc(Cl)cc3C)[nH]2)c1 (centres undefined),inactive,
COc1ccc(-n2c(C)cc(-c3csc(N)n3)c2C)cc1,"inconclusive: 44.7 µM [inhibitor, partial curve]",
CCN(C(=O)c1cc2c(s1)CCCC2)C1CC1,"inconclusive: 17.8 µM [inhibitor, partial curve, poor fit]",
S=C(NCc1ccc(Cl)cc1)Nc1ccc2ccccc2c1,"inconclusive: 56.2 µM [inhibitor, partial curve, poor fit]",
COCC(=O)Nc1ccc(OCc2ccccc2)cc1,"inconclusive: 0.316 µM [inhibitor, full curve, poor fit]",
N#CC1=C(N)Oc2c(oc(CO)cc2=O)C1c1ccccc1[N+](=O)[O-] (centres undefined),active: 15.8 µM,
CCOC(=O)CSC1=NC(=O)/C(=C/c2ccc(Br)cc2)S1,active: 39.8 µM,
COc1ccccc1CN1CCN(C(=O)c2ccc3c(c2)C(O)CCCCCN3C)CC1 (centres undefined),inactive,
COCCNC(=O)c1cc(Sc2ccc(F)cc2F)nc2ccccc12,"inconclusive: 63.1 µM [inhibitor, partial curve, poor fit]",
CC(=O)c1cccc(NC(=O)c2ccc3c(c2)C(=O)N(Cc2cccnc2)C3=O)c1,"inconclusive: 141 µM [inhibitor, single point]",
CC(=O)c1sc(NC(=O)COc2ccc(Br)cc2)nc1C,"inconclusive: 100 µM [inhibitor, partial curve, poor fit]",
O=C1CC(=O)N(c2ccccc2)N1c1ccccc1,"inconclusive: 63.1 µM [inhibitor, partial curve, poor fit]",
